Values quoted from earlier work in patent US20250186652A1, “ARTICLES AND METHODS FOR IMPROVED TISSUE HEALING” (UNIVERSITY OF MISSISSIPPI MEDICAL CENTER, priority 2022, published 2025).
For at least one compound, name, drawing or mass did not settle the structure.

Tested on: human tenocytes
Details: Wong, Tang et al. 2005; cited from earlier work

In the case of C[C@@H]1C[C@H]2[C@@H]3CCC4=CC(=O)C=C[C@]4(C)[C@@]3(F)[C@@H](O)C[C@]2(C)[C@@]1(O)C(=O)CO [dexamethasone], the proteoglycan production is given as “decrease proteoglycan production”.
